{"source": "patent US20240307396A1", "about": "“COMPOSITIONS AND METHODS FOR TREATING CELIAC DISEASE” (THE REGENTS OF THE UNIVERSITY OF CALIFORNIA, priority 2021, published 2024)", "format_in_all_cases": "in vivo, human", "key": {"[1]": {"test_system": "Type II refractory celiac disease", "assay": "Trend of pertinent laboratory values in a Type II RCD patient across sequential treatments", "conditions": "same patient; Budesonide 3 m, Infliximab 1 y, Cladribine 1.5 y, Tofacitinib 2 y", "from_the_text": "A person with a past medical history significant for Hashimoto's thyroiditis and positive celiac serology was initially seen for protein-losing enteropathy. Although they had previously been on a gluten-free diet (GFD) for 1 year after first being diagnosed with CD, they re-introduced gluten 3 years before pregnancy without symptoms. They stayed on gluten until one-month postpartum when they developed epigastric pain, nausea, diarrhea with 2-3 loose to watery stools daily, along with significant bilateral lower extremity edema.\nAt the time of initial hospital admission, they were five months postpartum with the above symptomatology. […] They were discharged to outpatient setting on a GFD and referred to a CD clinic for management.\n(§1) During the initial outpatient visit in the CD clinic they were hypotensive with anasarca, diagnosed with celiac crisis, and urgently sent for readmission. They were treated with 72 hours of intravenous solumedrol 20 mg every 12 hours and then transitioned to open-capsule protocol budesonide 3 mg three times a day.\n(§2) They were therefore switched to experimental infliximab after a total of 5 months on budesonide.\nThe patient was now about 18 months out from diagnosis of Type II RCD, which is associated with about 50% risk of lymphoma in 5 years, so it was imperative to find an effective regimen. […]"}, "[2]": {"test_system": "Type II refractory celiac disease", "assay": "Small bowel biopsy histology (modified Marsh classification) and immunophenotype in the Type II RCD patient", "from_the_text": "CD can be characterized using the modified Marsh classification scheme. A subject having a Marsh 0 score would be characterized as either healthy or if previously diagnosed with CD, as “CD in remission”. A Marsh 1 score is non-specific, rarely seen in CD, unless already on a GFD during endoscopy, and may be observed in subjects having dermatitis herpetiformis (DH) or in family members of CD patients, but also with other conditions as infections and adverse response to medications. A Marsh 2 score is rare and is sometimes observed in DH and again in CD patients already on a GFD. Marsh 3 score is characteristic of the spectrum of changes observed in symptomatic CD patients.\nas §1, §2\n(§3) The patient was now about 18 months out from diagnosis of Type II RCD, which is associated with about 50% risk of lymphoma in 5 years, so it was imperative to find an effective regimen. […] Discussion of associated adverse events, including thromboembolic ones, was conducted, and pre-treatment labs including lipid profile were done. […] This was the first-time the patient achieved such results in the 2 years since presenting with celiac crisis. […] Their tofacitinib dose will be reduced to 5 mg twice daily to reduce associated adverse events."}, "[3]": {"test_system": "Type II refractory celiac disease", "assay": "Endoscopic and clinical response of the Type II RCD patient", "conditions": "budesonide 3 months; infliximab 9 months; tofacitinib 10 mg twice daily, four months", "experimental": "as §1, §2, §3\nHowever, malabsorption, malignancy, morbidity and mortality are known complications in Type II RCD (Cellier et al. (2000); Ilus et al. (2014); Weiss (2021) Diagnosis and Management of Gluten-Associated Disorders: A clinical casebook. Springer). Currently, the best clinical practice in managing RCD is to advocate for experimental medication treatment in adjunct to a strict gluten-free diet (GFD). […]"}}, "note": "At least one structure is not confirmed: it was looked up by name or label, or the drawing left a doubt."}
{"smiles": "CCCC1O[C@@H]2C[C@H]3[C@@H]4CCC5=CC(=O)C=C[C@]5(C)[C@H]4[C@@H](O)C[C@]3(C)[C@]2(C(=O)CO)O1", "note": "(some centres unmarked) [Budesonide, budesonide]", "values": [{"measurement": "Endomysial IgA", "setting": "[1]", "value": "Positive"}, {"measurement": "T-cell aberrancy / CD8 expression in intraepithelial T-lymphocytes", "setting": "[2]; budesonide 3 months, infliximab 9 months", "value": "marked loss of CDS expression in intraepithelial T-lymphocytes"}, {"measurement": "Marsh lesions on biopsy", "setting": "[2]; budesonide 3 months, infliximab 9 months, tofacitinib 10 mg twice daily, four months", "value": "Marsh 3B-C"}, {"measurement": "Pathology (Marsh lesion)", "setting": "[2]; same patient, Budesonide 3 m, Infliximab 1 y, Cladribine 1.5 y, Tofacitinib 2 y", "value": "Marsh 3B-C"}, {"measurement": "Endoscopic finding (ulcerative jejunitis / duodenopathy)", "setting": "[3]", "value": "steroid-resistant RCD and ulcerative jejunitis"}]}
